This passage reports binding results from article PMC4332418.

No constants are given. Whether binding was seen depends on the method and setting. Some results given as binding are weak or reduced against the parent protein; the word gives no strength.

This experiment deals with Neuroserpin (human, recombinant, wild type) (human) (UniProt Q99574). Nature of the experiment: SEC; 20 uM native NS incubated at 55 °C for 2 h; polymers then separated from latent NS by size exclusion chromatography; both purified.

B1: Neuroserpin (human, recombinant, wild type) (protein, UniProt Q99574 17-410)
chain: TGATFPEEAIADLSVNMYNRLRATGEDENILFSPLSIALAMGMMELGAQGSTQKEIRHSMGYDSLKNGEEFSFLKEFSNMVTAKESQYVMKIANSLFVQNGFHVNEEFLQMMKKYFNAAVNHVDFSQNVAVANYINKWVENNTNNLVKDLVSPRDFDAATYLALINAVYFKGNWKSQFRPENTRTFSFTKDDESEVQIPMMYQQGEFYYGEFSDGSNEAGGIYQVLEIPYEGDEISMMLVLSRQEVPLATLEPLVKAQLVEEWANSVKKQKVEVYLPRFTVEQEIDLKDVLKALGITEIFIKDANLTGLSDNKEIFLSKAIHKSFLEVNEEGSEAAAVSGMIAISRMAVLYPQVIVDHPFFFLIRNRRTGTILFMGRVMHPETMNTSGHDFEEL
In the case of B1, the binding result is “binds”.
